The values below come from doi:10.1101/259481.

By UniProt entry, the sequences of proteins in these tests, tags left out. Where a name states a change or a piece, a line headed by the entry shows the natural chain unless it says otherwise. Residues count along the entry.
laminin alpha 4 LG domain recombinant protein (Q16363, residues 826-1816): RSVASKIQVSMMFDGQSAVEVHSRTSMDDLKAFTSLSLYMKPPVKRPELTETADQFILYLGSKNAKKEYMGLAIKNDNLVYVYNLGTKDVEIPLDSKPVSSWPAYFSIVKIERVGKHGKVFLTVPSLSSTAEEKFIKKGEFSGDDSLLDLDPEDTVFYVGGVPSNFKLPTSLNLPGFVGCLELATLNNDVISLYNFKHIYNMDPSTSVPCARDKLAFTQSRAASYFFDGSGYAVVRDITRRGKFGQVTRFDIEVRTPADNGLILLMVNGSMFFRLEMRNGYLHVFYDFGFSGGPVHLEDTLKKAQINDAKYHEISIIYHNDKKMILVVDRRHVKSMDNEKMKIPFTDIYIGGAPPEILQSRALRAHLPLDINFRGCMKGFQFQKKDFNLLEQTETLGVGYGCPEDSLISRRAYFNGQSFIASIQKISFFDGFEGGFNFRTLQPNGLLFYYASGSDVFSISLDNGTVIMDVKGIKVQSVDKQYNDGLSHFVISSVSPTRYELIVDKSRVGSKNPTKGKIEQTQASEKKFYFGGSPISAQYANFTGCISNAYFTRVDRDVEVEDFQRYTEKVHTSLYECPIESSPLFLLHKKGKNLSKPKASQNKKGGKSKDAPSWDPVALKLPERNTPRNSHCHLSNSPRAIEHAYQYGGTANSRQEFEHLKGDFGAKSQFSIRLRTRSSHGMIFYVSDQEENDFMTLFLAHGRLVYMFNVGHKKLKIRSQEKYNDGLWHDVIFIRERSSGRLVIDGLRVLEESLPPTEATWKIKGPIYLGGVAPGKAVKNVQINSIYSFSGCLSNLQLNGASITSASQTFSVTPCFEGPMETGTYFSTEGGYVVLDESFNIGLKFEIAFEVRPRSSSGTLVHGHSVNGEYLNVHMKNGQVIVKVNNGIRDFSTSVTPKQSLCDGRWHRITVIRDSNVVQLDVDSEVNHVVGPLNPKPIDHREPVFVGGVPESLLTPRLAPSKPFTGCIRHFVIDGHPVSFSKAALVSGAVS
laminin-derived peptide α4_(1408-1434) (Q16363, residues 1408-1434): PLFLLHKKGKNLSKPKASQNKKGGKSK
laminin-derived peptide α4_(1521-1543) (Q16363, residues 1521-1543): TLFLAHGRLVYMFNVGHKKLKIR
UniProt P24043: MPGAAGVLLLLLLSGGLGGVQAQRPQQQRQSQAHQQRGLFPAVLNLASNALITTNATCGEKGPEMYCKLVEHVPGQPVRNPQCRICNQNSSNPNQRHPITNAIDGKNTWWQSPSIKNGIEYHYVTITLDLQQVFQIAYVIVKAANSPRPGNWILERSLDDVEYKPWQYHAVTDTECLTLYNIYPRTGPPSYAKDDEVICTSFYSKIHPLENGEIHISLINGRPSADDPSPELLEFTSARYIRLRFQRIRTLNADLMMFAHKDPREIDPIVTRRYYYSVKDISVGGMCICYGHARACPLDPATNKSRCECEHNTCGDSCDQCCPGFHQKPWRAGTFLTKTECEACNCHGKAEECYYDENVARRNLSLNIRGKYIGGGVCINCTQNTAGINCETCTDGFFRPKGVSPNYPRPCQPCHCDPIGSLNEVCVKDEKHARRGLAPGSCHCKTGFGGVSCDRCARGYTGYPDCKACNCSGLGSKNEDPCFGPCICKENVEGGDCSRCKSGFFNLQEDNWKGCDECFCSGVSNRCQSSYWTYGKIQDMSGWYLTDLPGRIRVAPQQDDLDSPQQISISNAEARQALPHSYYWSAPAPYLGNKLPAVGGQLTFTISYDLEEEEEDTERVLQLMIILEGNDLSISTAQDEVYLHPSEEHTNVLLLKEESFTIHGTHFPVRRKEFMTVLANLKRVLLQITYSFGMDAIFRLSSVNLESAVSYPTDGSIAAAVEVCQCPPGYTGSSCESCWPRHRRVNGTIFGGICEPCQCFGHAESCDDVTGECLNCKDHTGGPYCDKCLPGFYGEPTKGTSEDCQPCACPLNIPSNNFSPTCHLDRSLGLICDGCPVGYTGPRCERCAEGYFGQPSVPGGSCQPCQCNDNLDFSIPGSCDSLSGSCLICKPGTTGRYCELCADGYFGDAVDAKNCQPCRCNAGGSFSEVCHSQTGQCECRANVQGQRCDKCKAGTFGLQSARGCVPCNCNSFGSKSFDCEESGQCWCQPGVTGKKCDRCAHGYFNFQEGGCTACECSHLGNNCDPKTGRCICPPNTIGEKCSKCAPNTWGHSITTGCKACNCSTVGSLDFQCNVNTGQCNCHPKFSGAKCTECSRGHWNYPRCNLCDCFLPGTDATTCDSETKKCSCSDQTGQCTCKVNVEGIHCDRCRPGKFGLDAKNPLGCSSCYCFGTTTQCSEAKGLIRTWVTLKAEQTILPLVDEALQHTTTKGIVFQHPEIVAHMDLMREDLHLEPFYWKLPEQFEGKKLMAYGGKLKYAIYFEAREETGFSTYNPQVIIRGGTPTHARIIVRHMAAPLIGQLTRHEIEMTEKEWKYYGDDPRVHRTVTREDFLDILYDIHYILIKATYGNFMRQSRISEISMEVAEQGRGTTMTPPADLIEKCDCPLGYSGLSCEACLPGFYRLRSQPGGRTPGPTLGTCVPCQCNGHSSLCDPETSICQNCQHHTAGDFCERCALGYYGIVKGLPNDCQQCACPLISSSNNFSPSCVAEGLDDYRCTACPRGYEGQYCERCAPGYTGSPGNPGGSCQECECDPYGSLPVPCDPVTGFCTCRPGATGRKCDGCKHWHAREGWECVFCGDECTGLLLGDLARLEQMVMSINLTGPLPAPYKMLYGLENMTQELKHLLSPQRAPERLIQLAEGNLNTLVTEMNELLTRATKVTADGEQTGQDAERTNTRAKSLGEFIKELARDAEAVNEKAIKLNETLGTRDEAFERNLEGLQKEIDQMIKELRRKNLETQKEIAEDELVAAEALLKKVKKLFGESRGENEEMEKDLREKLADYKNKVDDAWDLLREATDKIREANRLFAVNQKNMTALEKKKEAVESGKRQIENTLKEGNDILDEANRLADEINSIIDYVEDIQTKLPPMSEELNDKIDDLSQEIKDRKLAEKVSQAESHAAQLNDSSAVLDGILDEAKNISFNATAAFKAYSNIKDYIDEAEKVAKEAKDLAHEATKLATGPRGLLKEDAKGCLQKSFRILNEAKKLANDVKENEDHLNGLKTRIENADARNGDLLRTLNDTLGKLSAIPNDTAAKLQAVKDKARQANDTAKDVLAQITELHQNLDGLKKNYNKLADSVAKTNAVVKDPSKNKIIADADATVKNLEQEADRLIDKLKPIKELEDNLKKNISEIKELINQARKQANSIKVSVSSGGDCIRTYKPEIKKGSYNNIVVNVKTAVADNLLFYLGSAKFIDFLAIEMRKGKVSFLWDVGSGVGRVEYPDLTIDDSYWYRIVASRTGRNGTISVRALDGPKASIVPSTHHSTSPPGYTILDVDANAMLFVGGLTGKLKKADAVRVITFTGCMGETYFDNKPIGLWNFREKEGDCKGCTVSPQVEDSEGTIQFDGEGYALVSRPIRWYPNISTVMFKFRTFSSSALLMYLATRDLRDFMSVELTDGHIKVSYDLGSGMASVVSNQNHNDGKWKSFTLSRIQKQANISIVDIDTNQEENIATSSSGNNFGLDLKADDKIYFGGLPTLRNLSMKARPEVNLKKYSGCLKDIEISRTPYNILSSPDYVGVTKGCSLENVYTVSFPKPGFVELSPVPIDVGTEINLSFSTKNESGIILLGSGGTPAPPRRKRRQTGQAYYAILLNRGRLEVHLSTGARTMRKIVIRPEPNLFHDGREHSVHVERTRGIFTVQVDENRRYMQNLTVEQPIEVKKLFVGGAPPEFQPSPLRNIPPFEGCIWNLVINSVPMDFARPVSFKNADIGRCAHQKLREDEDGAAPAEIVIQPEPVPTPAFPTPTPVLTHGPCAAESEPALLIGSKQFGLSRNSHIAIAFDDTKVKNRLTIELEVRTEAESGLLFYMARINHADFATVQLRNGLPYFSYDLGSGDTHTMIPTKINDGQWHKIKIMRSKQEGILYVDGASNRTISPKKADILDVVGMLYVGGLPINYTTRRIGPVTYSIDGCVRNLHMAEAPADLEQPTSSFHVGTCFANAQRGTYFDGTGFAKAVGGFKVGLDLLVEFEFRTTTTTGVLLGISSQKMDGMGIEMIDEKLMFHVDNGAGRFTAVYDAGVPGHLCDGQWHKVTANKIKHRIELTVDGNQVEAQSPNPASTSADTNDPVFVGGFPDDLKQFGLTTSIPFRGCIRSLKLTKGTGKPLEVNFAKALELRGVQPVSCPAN

No constants are given. Whether binding was seen depends on the method and setting. Some binding calls cover weakened binding; strength is not graded here.

What all share (experiment): ELISA
On the technique in general: In an ELISA, binding on a coated surface is turned into a signal by an enzyme label.

Assay [1] concerns the target laminin-derived peptide α4_(1521-1543) (human) (UniProt Q16363).
The next assay deals with laminin-221 (UniProt P24043).
In assay [2] the target is laminin-derived peptide α4_(1408-1434) (human) (UniProt Q16363).
Assay [3] addresses T1, laminin-derived peptide α5_(3312-3325) (human) (UniProt O15230).
T1 sequence (peptide): ARKASRRSRQPARH

The target in assay [4] is laminin alpha 4 LG domain recombinant protein (human) (UniProt Q16363).
Assay [5] addresses T2, laminin-derived peptide α3_(3031-3043) (human) (UniProt Q16787).
T2 sequence (peptide): KNSFMALYLSKGR

The target of assay [6] is T3, laminin-derived peptide α3_(2932-2951) (human) (UniProt Q16787).
T3 sequence (peptide): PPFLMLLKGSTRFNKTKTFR

The target of assay [7] is T4, laminin-derived peptide α5_(3539-3550) (human) (UniProt O15230).
T4 sequence (peptide): TLPDVGLELEVR

The target in assay [8] is T5, laminin alpha 5 LG domain recombinant protein (human) (UniProt O15230).
T5 sequence: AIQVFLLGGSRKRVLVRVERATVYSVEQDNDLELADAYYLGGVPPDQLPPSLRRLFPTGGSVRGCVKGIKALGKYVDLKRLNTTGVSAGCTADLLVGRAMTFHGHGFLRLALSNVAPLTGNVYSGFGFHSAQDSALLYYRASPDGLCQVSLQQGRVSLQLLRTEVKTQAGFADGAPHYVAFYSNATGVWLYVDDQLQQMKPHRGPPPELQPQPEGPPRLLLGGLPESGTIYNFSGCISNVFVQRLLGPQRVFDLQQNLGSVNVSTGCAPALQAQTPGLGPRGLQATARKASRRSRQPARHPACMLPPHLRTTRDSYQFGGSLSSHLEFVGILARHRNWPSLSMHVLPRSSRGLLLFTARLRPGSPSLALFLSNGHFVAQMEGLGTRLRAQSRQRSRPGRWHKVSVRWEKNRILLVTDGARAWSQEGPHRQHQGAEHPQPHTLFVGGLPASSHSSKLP

The target in assay [9] is T6, laminin-derived peptide α5_(3300-3330) (human) (UniProt O15230).
T6 sequence (peptide): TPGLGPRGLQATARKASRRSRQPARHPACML

For assay [10], the target named is T7, laminin-derived peptide α3_(3043-3067) (human) (UniProt Q16787).
T7 sequence (peptide): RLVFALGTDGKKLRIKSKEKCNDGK

Assay [11] addresses T8, recombinant laminin α3_(2928-3150) protein (human) (UniProt Q16787).
T8 sequence: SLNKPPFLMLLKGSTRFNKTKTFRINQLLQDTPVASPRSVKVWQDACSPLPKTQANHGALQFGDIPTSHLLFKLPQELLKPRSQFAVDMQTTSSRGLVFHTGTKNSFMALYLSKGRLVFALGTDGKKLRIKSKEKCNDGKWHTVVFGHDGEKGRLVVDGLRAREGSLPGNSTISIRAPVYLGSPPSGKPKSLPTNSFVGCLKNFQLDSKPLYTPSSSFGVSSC

Assay [12] concerns the target T9, laminin-derived peptide α5_(3417-3436) (human) (UniProt O15230).
T9 sequence (peptide): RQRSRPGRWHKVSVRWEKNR

B1: placental growth factor (PlGF)-2 (ligand, UniProt P49763-3 19-170)
chain: LPAVPPQQWALSAGNGSSEVEVVPFQEVWGRSYCRALERLVDVVSEYPSEVEHMFSPSCVSLLRCTGCCGDENLHCVPVETANVTMQLLKIRSGDRPSYVELTFSQHVRCECRPLREKMKPERRRPKGRGKRRREKQRPTDCHLCGDAVPRR
With B1, the binding result in [1] was “binds”; in the assay with laminin-221 it was “binds”; in assay [2], “binds”; in assay [3] it was “no binding (tested: 1 μg/mL)”; in assay [4], “binds”.

B2: recombinant human syndecan-4 (receptor, UniProt P31431 19-145)
chain: ESIRETEVIDPQDLLEGRYFSGALPDDEDVVGPGQESDDFELSGSGDLDDLEDSMIGPEVVHPLVPLDNHIPERAGSGSQVPTEPKKLEENEVIPKRISPVEESEDVSNKVSMSSTVQGSNIFERTE
For B2, the binding result is “binds” in assay [1]; “binds weakly” in assay [5]; “binds weakly” in assay [6]; “binds” in assay [2]; “binds weakly” in assay [3]; “no binding (tested: 1 μg/mL)” in assay [7].

B3: recombinant human syndecan-1 (receptor, UniProt P18827 23-254)
chain: QIVATNLPPEDQDGSGDDSDNFSGSGAGALQDITLSQQTPSTWKDTQLLTAIPTSPEPTGLEATAASTSTLPAGEGPKEGEAVVLPEVEPGLTAREQEATPRPRETTQLPTTHLASTTTATTAQEPATSHPHRDMQPGHHETSTPAGPSQADLHTPHTEDGGPSATERAAEDGASSQLPAAEGSGEQDFTFETSGENTAVVAVEPDRRNQSPVDQGATGASQGLLDRKEVLG
Regarding B3, the binding result in assay [1] is on record as “binds”; in assay [5], “binds weakly”; in assay [6], “binds weakly”; in [2] it was “binds”; in assay [3], “binds weakly”; in assay [7] it was “no binding (tested: 1 μg/mL)”.

B4: placental growth factor (PlGF)-1 (ligand, UniProt P49763-2 19-149)
chain: LPAVPPQQWALSAGNGSSEVEVVPFQEVWGRSYCRALERLVDVVSEYPSEVEHMFSPSCVSLLRCTGCCGDENLHCVPVETANVTMQLLKIRSGDRPSYVELTFSQHVRCECRPLREKMKPERCGDAVPRR
In the case of B4, the binding result in [1], in [5], in assay [8], in assay [9], in assay [10] and in assay [6] was “no binding (tested: 1 μg/mL)” in each case. The binding result in assay [11], in assay [2], in assay [3], in [12], in assay [4] and in assay [7] was “no binding (tested: 1 μg/mL)” throughout.
